# Results published in the supplement of paper PMC3334620.
# The full ranking holds about 33,000 sequences; the median of “E-score (-0.5 to 0.5)” is about -0.0059, and the highest 2% start at about 0.26. Some of the results follow.
# Target: T1, Cin5 (UniProt P40917)
# T1 sequence: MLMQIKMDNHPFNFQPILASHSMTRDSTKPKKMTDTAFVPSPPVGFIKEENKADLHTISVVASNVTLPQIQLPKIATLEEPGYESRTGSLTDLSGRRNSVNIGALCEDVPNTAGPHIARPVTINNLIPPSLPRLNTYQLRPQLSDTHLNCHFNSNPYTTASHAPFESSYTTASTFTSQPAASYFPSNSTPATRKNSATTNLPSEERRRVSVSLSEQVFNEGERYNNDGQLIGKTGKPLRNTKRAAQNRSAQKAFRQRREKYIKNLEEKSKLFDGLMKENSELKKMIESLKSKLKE
# Assay: PBM E-score (8-mer binding enrichment) (E-score (-0.5 to 0.5)); higher = stronger / more preferred TF binding
# Conditions: protein concentration: 100 nM; construct: GST-full length
# In short: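 E-scores (a modified Wilcoxon-Mann-Whitney statistic) were assigned by the Universal PBM Analysis Suite to every ungapped eight-base word pooled with its reverse complement. The input came from universal all-10-mer Agilent arrays made double-stranded by primer extension and probed with GST-tagged yeast transcription factors at about 100-200 nM. Fluorescent anti-GST detected bound protein, and masliner normalised the scans.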
row,Sequence,PBM E-score
1,CTAGGCAA,-0.126
2,ACAAGAGA,0.0645
3,GACTTGCC,-0.255
4,AATGACAG,0.0567
5,CTCTGTCC,-0.0803
6,CATCACGA,-0.0937
7,AATGACTC,-0.17
8,CAGTGGGC,-0.0998
9,CAATGGCC,-0.225
10,CCCCTGCA,-0.235
11,GACATCAC,-0.0253
12,GTAACTAA,0.111
13,CGGGTGCA,-0.0994
14,CAAACGCA,-0.103
15,CATTGGAG,0.0105
16,CGGTGCTA,-0.0572
17,CATCTAAC,-0.0982
18,CATATTGA,0.0883
19,AGCCCGGA,-0.207
20,ACGGACCC,-0.213
21,AGAGACAC,-0.155
22,ACGTAAAT,0.139
23,AGAAAACT,0.0998
24,GCGAACCC,-0.0359
25,CCATGTCC,-0.164

# Random excerpt: 6 entries already listed
row,Sequence,PBM E-score
17,CATCTAAC,-0.0982
20,ACGGACCC,-0.213
1,CTAGGCAA,-0.126
6,CATCACGA,-0.0937
11,GACATCAC,-0.0253
25,CCATGTCC,-0.164

# Next part:

row,Sequence,PBM E-score
1,CTGGGTCC,-0.348
2,AATGTCGT,0.0366
3,CGAACGTA,-0.0397
4,GGCCGCAA,-0.162
5,ACACTAAA,0.236
6,AGCGCGTC,-0.115
7,GCAGCACC,-0.133
8,CGTTAGAA,-0.0968
9,ACTTCCTA,0.0359
10,TGATTTAA,0.168
11,GCAATTGC,-0.0502
12,AAAGTCTC,-0.247
13,ACAGCGAG,-0.0977
14,CCACGTGA,-0.093
15,ACCGAAAA,0.151
16,ATATAGGC,0.1
17,CAACAAGC,0.0475
18,AACCTTAA,0.19
19,GGGGCTAA,-0.101
20,GGGTGCTA,-0.0324
21,TACCTCCA,-0.049
22,AGTGCTAA,0.0862
23,ACACTACC,-0.079
24,GTCAGCCA,0.07
25,AGGGATTG,-0.0923

row,Sequence,PBM E-score
1,GCGCGGTA,0.151
2,ATTTGGAG,-0.181
3,TCTGAGCA,-0.0816
4,ACCCTATC,-0.016
5,GAGACGTA,0.185
6,CGTACTCC,-0.0619
7,CCTATTTC,0.047
8,ACATTAAA,0.152
9,CCTGTATA,0.00769
10,AGTCATAT,0.158
11,ACCGATCG,-0.0344
12,AAGCTTAG,0.306
13,CGACAGGA,0.0987
14,ATCGCACA,-0.0249
15,GCGCATGA,-0.054
16,CATGCACA,0.156
17,CAACCCTG,0.04
18,ACCTACGT,0.0549
19,GGGACTTA,-0.0902
20,CTACGAAG,-0.213
21,CCTCTCGA,-0.189
22,AGCATCCG,0.00491
23,ATGCTCTG,-0.126
24,CAATGTTC,-0.12
25,GGATTGTA,0.0819

row,Sequence,PBM E-score
1,ACGGCGCC,-0.238
2,AACGTGGG,-0.168
3,GATTTTTA,-0.0301
4,CCTTCGAG,-0.182
5,CCGGCGTA,-0.229
6,AACGTGCA,0.0487
7,GATAGCCC,-0.169
8,CATCTGGA,-0.0512
9,CTGCGAAA,-0.0552
10,CGATCACC,0.155
11,ACGACTCT,0.0094
12,CTGTAGTA,0.208
13,AGCTGACT,0.142
14,AGCACTAG,0.0301
15,GTTCATCA,0.0948
16,GCAGATAC,0.0167
17,CTGATATA,0.106
18,CCGGGTAA,0.0678
19,GACTACCA,-0.0759
20,CGAGCCCC,-0.189
21,GAGGCTGC,-0.139
22,CTGTATCA,-0.097
23,GAAGAATC,0.00251
24,CAGTTCGA,0.0222
25,CACTCTGA,-0.0735

row,Sequence,PBM E-score
1,AGTGGGAA,0.0405
2,ATTGTTGG,0.137
3,CGATACCA,0.0461
4,CCAATAGA,-0.01
5,ACATTCTA,-0.0488
6,AACCGTGC,-0.0844
7,CTGACTAA,0.36
8,CGGTAGCC,-0.0198
9,GGGTATAA,0.0581
10,AGACGACT,-0.122
11,GGATATCC,0.088
12,GAATATCC,0.0289
13,ATTGCTAA,0.203
14,CACATTAG,-0.0363
15,CGGAACTA,0.205
16,CCGCCTAG,0.0308
17,AATGGTCC,0.0864
18,AGCAGTAG,-0.142
19,GTAGCTAC,0.0441
20,AAGCGCAA,0.0939
21,AGACCAGA,-0.033
22,GATCCGCC,-0.0025
23,ACTGTGGA,-0.0659
24,AGGGAGGA,-0.321
25,ATTCCCTG,0.0327

row,Sequence,PBM E-score
1,GTCGAGCA,-0.284
2,CGCCTGAC,0.115
3,ATCTGCGA,0.00217
4,CCCGATCG,0.0791
5,ATGGAGTC,-0.0755
6,GAACTGCC,-0.0591
7,GACCGATA,0.0301
8,CGGTGGAA,-0.0968
9,CAAGTCAG,-0.0103
10,AACTTAAG,-0.095
11,GAAGATAA,0.136
12,AGGGAAAG,-0.113
13,ACGCAACT,0.178
14,CTTGGATC,0.0513
15,GCAAGCGA,0.0653
16,CGACAACC,-0.13
17,AACCAAGA,0.102
18,AAGGGATA,0.058
19,CAGCTCGC,0.00031
20,AGTTGAAT,0.259
21,AAAGAGCT,-0.177
22,AATTTCTC,0.164
23,TCCACCAA,0.0494
24,CTGAAAGC,0.0475
25,ATGGACTG,-0.0285

row,Sequence,PBM E-score
1,AGCTATAG,-0.209
2,CGACTACA,0.0644
3,AGCAAAGA,-0.00928
4,GGGGGTAC,-0.362
5,AGGACCGC,0.01
6,GAAATTTC,-0.0536
7,GAGTACTA,0.0661
8,CGTGCGCC,0.0322
9,ATGTGCGA,-0.106
10,GCGGATAC,0.0777
11,ATGGCGGA,-0.174
12,ATTGGTCC,0.0852
13,CACCAAGA,-0.0891
14,AACGTTGG,0.0395
15,AGGAGACT,-0.208
16,CACGCTCA,0.126
17,AGTGGCAA,-0.00498
18,ATAAGTCG,0.151
19,AACCCTCC,-0.209
20,CTAAAGGA,-0.186
21,GGGTAGGA,-0.0656
22,CCGAACGG,-0.0763
23,CTCCACAA,0.0534
24,GCCCAAAA,0.02
25,ATTTTTTG,0.187

row,Sequence,PBM E-score
1,CAGTCATG,-0.0937
2,CAATACTA,0.0648
3,AACGACTT,-0.234
4,CTTAGAAG,-0.0753
5,GACTCCTA,-0.074
6,AGCGTATG,0.0127
7,AGCATCGC,-0.174
8,AAACGTTG,-0.0943
9,CCCGGGTA,-0.0532
10,CATTCTAC,0.1
11,ACGTCGTG,0.0103
12,CCCCACAG,-0.225
13,GATCTACC,0.00231
14,AACATACA,0.0814
15,CGGCTTAA,0.19
16,ACCGTGCG,-0.139
17,GTTCCTCA,-0.244
18,AGCAATAG,-0.0777
19,GTAGGCAA,-0.0158
20,AGAGGCTA,-0.114
21,AGTTTCCA,-0.0283
22,ATTGCTGG,-0.0177
23,TATCCACA,0.154
24,CTATGGAC,-0.0786
25,ACGTCTTG,-0.161

row,Sequence,PBM E-score
1,CGTAGCTA,-0.0516
2,AATAATCC,0.0532
3,ACCCGCCC,0.129
4,AACTCTGG,0.0344
5,GTACCTAA,-0.0371
6,CTGGCTAC,-0.24
7,CGGGCTGC,-0.116
8,GATTTATA,0.179
9,AACCCTGC,-0.0766
10,ATGTGTCA,0.135
11,CACATATG,0.0201
12,ACAATCCT,0.00738
13,TCCGATAA,-0.151
14,AGTGGATA,0.171
15,GAGTATGA,0.141
16,ACTATTGA,0.211
17,CGGGGGAG,-0.389
18,TGCACTAA,0.189
19,AGATTCGG,0.0517
